PubChem BioAssay AID504444 (National Center for Advancing Translational Sciences (NCATS), 2011)
Hit rate of the full screen: of about 360,000 compounds, about 7,500 (2.1%) were called active. Inconclusive means that the source gave no clear call. Such entries were picked first, then a sample of the others. Calls come from the whole dose curve; as a rule, active = well fitted inhibition curve with a large enough effect; inconclusive = small, poorly fitted or top-dose-only effect, or effect the other way; inactive = flat fitted curve, though single readings scatter. Where the call is inconclusive, the potency comes from a doubtful curve fit.

Assay: Nrf2 qHTS screen for inhibitors; note: nearly all actives have a fitted effect of over 60% in size
Conditions: A549 ARE-Fluc reporter, luciferase luminescence, 18-24 h; activity change, negative = inhibition: at 46 µM (top of the series)
Procedure, shortened: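 Quantitative HTS in A549 cells stably bearing an antioxidant response element-firefly luciferase construct. Inhibition of Nrf2-driven transcription was scored by luminescence after 18-24 h of compound exposure at 37 °C.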
% is set by controls: 0 for no effect and ±100 for the full control effect; potency is the fitted concentration of half-maximal effect.

Question: Which Potency does the source give for `CCOc1ccc(NC(=O)Cn2cnc3c(oc4ccccc43)c2=O)cc1` here?
Answer: Its Potency is inconclusive: 32.6 µM [falling, single point].

Question: Which Potency does the source give for `COc1ccccc1-c1sc2cc3c(cc2c1-c1ccc2c(c1)OCO2)OCO3` here?
Answer: The Potency was inconclusive: 13 µM [activator, partial curve, poor fit].

Question: With `O=C(Nc1cccc(Cl)c1)c1ccc(NCCCN2CCOCC2)c([N+](=O)[O-])c1` as the compound, how does the Potency read?
Answer: Its Potency is inconclusive: 0.517 µM [falling, full curve, poor fit].

Question: For `O=C(CN1CCC(n2nnc3cc(C(F)(F)F)ccc32)CC1)NCc1cccs1`, which Potency is on record?
Answer: The Potency was inconclusive: 20.6 µM [falling, partial curve].

Question: Which Potency does the source give for `CN(C)c1cc[n+](CC(=O)c2ccc(Br)cc2)cc1` here?
Answer: The Potency was inconclusive: 18.4 µM [falling, partial curve].

Question: For `Cc1nc2scc(-c3ccccc3)c2c(=O)n1N=C1C=CC(=O)C=C1`, which “activity change, negative = inhibition” value is on record?
Answer: The value was inactive: -12.7%.

Question: Which Potency does the source give for `CC(C)=CC(=O)Nc1ccc(Cl)cc1` here?
Answer: Its Potency is inconclusive: 1.46 µM [activator, full curve].

Question: With `NNC(=S)Nc1ccccc1Cl` as the compound, how does the Potency read?
Answer: Its Potency is inconclusive: 16.4 µM [activator, single point].

Question: Which Potency does the source give for `C=CCn1c(C)cc(C(=O)CN2C(=O)c3ccccc3S2(=O)=O)c1C` here?
Answer: The Potency was active: 0.651 µM.

Question: With `CN(c1ccc(F)cc1)S(=O)(=O)c1ccc(Cl)c(C(=O)OCC(=O)NC2CC2)c1` as the compound, how does the Potency read?
Answer: Its Potency is inconclusive: 29.1 µM [activator, single point].

Question: Which Potency does the source give for `CCOc1ccc(C(=O)Nc2nnc(NC(=S)Nc3ccccc3)s2)cc1` here?
Answer: The Potency was inconclusive: 20.6 µM [activator, partial curve].

Question: With `Cc1ccc(-n2c(C)cc(C(=O)COC(=O)c3c(C)noc3C)c2C)cc1` as the compound, how does the Potency read?
Answer: Its Potency is inconclusive: 14.6 µM [falling, single point].

Question: For `Cc1nn(-c2ccccc2)c2sc(C(=O)N3CCc4ccccc4C3)cc12`, which “activity change, negative = inhibition” value is on record?
Answer: The value was inactive: -22.2%.

Question: Which Potency does the source give for `CCCc1nc2sc3c(c2c(=O)n1NC(=O)CCCl)CCCC3` here?
Answer: The Potency was active: 11.6 µM.

Question: For `O=C(Cc1ccc(Cl)cc1)Nc1ccc(NC(=O)c2cccs2)cc1`, which Potency is on record?
Answer: The Potency was inconclusive: 2.31 µM [falling, partial curve, poor fit].

Question: Which Potency does the source give for `CCOC(=O)c1ccc2[nH]c3c(c2c1)CCCC3` here?
Answer: The Potency was inconclusive: 29.1 µM [activator, single point].

Question: Which Potency does the source give for `COC(=O)C(C)n1cnc2c(nnn2Cc2ccc(Cl)cc2)c1=O` (configuration not stated) here?
Answer: The Potency was inconclusive: 29.1 µM [falling, single point].

Question: With `CCCn1cc(S(=O)(=O)c2cc(C)ccc2C)c(=O)c2cc(F)c(N3CCCCCC3)cc21` as the compound, how does the Potency read?
Answer: Its Potency is inconclusive: 29.1 µM [falling, single point].

Question: Which Potency does the source give for `CCOc1ccc(NCc2cccn2-c2nnc(N3CCC(C(=O)NCc4cccc(OC)c4)CC3)s2)cc1` here?
Answer: Its Potency is inconclusive: 23.1 µM [falling, single point].

Question: Which Potency does the source give for `O=C(N/N=C/c1ccsc1)c1ccc2ccccc2n1` here?
Answer: Its Potency is inconclusive: 13 µM [activator, partial curve].

Question: With `COCCCNc1nc(-c2ccc(Cl)cc2)nc2ccccc12` as the compound, how does the Potency read?
Answer: Its Potency is inconclusive: 29.1 µM [falling, single point].

Question: With `Cc1ccc(S(=O)(=O)Nc2cccc(-c3ccc4nnc(C)n4n3)c2)s1` as the compound, how does the Potency read?
Answer: The Potency was inconclusive: 20.6 µM [falling, partial curve, poor fit].

Question: For `O=C(/C=C/c1ccccc1)N1CCN(c2ccc([N+](=O)[O-])c(N3CCOCC3)c2)CC1`, which Potency is on record?
Answer: Its Potency is inconclusive: 18.4 µM [falling, partial curve, poor fit].

Question: With `C=CCNC(=S)N1CCN(c2ccccc2Cl)CC1` as the compound, how does the Potency read?
Answer: The Potency was inconclusive: 16.4 µM [falling, single point].

Question: For `COc1ccc(-n2nnc(C(=O)Nc3ccccc3F)c2N)cc1`, which Potency is on record?
Answer: The Potency was inconclusive: 14.6 µM [activator, partial curve].

Question: Which “activity change, negative = inhibition” value does the source give for `CSc1ncc(Cl)c(C(=O)Nc2nnc(SC)s2)n1` here?
Answer: Its value is inactive: -8.02%.

Question: With `COc1cc2c(cc1NC(=O)COC(=O)[C@@H](NC(=O)c1ccccc1F)C(C)C)oc1ccccc12` as the compound, how does the “activity change, negative = inhibition” value read?
Answer: The value was inactive: 5.13%.

Question: For `COC(=O)c1cc(S(=O)(=O)N2CCN(c3cccc(C)c3C)CC2)c[nH]1`, which Potency is on record?
Answer: Its Potency is inconclusive: 18.4 µM [falling, single point].

Question: Which Potency does the source give for `CC(C)(C)OC(=O)N1CCC(c2c(C(=O)NCc3ccccn3)cnn2-c2ccc(F)cc2)CC1` here?
Answer: Its Potency is inconclusive: 5.8 µM [activator, full curve].

Question: With `CC12CCC(=O)N1C(C(=O)OCC(=O)Nc1cccc(Br)c1)CS2` (configuration not stated) as the compound, how does the “activity change, negative = inhibition” value read?
Answer: The value was inactive: 0.267%.

Question: For `CSc1nsc(SCc2cnc(C)nc2N)n1`, which Potency is on record?
Answer: The Potency was inconclusive: 0.0046 µM [activator, full curve, poor fit].

Question: Which Potency does the source give for `N/C(=N\OC(=O)Cc1ccc([N+](=O)[O-])cc1)c1ccccn1` here?
Answer: Its Potency is inconclusive: 0.58 µM [activator, partial curve, poor fit].

Question: With `CCOC(=O)C1(CC2CCCCO2)CCN(Cc2cn[nH]c2-c2cccc(F)c2)CC1` (configuration not stated) as the compound, how does the Potency read?
Answer: The Potency was inconclusive: 20.6 µM [falling, partial curve, poor fit].

Question: Which “activity change, negative = inhibition” value does the source give for `C=CCCN(Cc1ccc(OC)cc1)S(=O)(=O)c1ccccc1Br` here?
Answer: Its value is inactive: -24.8%.

Question: With `CC1(C)CC(=O)C=C(Nc2ccc([N+](=O)[O-])cc2)C1` as the compound, how does the “activity change, negative = inhibition” value read?
Answer: Its value is inactive: 9.32%.

Question: For `O=C(Nc1ccc(Cl)c(S(=O)(=O)N2CCOCC2)c1)c1cccs1`, which Potency is on record?
Answer: The Potency was inconclusive: 32.6 µM [falling, single point].

Question: Which “activity change, negative = inhibition” value does the source give for `Cc1cc(C)c2c(=O)cc(C(=O)Nc3ccc(S(=O)(=O)Nc4onc(C)c4C)cc3)oc2c1` here?
Answer: The value was inactive: 5.65%.

Question: With `CCC(C)NC(=O)c1ccc2c(c1)N=C(C)c1cc(C)ccc1S2` (configuration not stated) as the compound, how does the “activity change, negative = inhibition” value read?
Answer: The value was inactive: -7.9%.

Question: For `CCOC(=O)C1CCCN(Cc2nc(N)nc(Nc3ccc(C)cc3)n2)C1` (configuration not stated), which Potency is on record?
Answer: Its Potency is inconclusive: 29.1 µM [falling, single point].

Question: For `O=C(Cc1ccc(S(=O)(=O)N2CCOCC2)s1)Nc1cc(C(F)(F)F)cc(C(F)(F)F)c1`, which Potency is on record?
Answer: Its Potency is inconclusive: 23.1 µM [falling, single point].

Question: Which “activity change, negative = inhibition” value does the source give for `CC(C)c1nc2sc3c(c2c(=O)[nH]1)CC(C)(C)OC3` here?
Answer: Its value is inactive: -15.9%.

Question: Which Potency does the source give for `FC(F)(F)c1ccccc1NC(=S)N1CCN(c2ncccn2)CC1` here?
Answer: The Potency was inconclusive: 23.1 µM [falling, single point].

Question: For `CCOC(=O)c1ccc(NS(=O)(=O)c2c(C)n[nH]c2C)cc1`, which Potency is on record?
Answer: Its Potency is inconclusive: 13 µM [falling, partial curve, poor fit].

Question: For `O=C(NC(NC(=S)Nc1ccc(Cl)cc1)C(Cl)(Cl)Cl)c1ccco1` (configuration not stated), which Potency is on record?
Answer: The Potency was inconclusive: 23.1 µM [falling, single point].

Question: For `O=S(=O)(c1ccc(NCCOCCO)nc1)N1CCCCC1`, which “activity change, negative = inhibition” value is on record?
Answer: Its value is inactive: 7.17%.

Question: With `Cc1cc(C(=O)CN2C(=O)c3ccccc3S2(=O)=O)c(C)n1CC1CCCO1` (configuration not stated) as the compound, how does the Potency read?
Answer: Its Potency is active: 0.92 µM.

Question: Which activity change, negative = inhibition does the source give for `Cc1cccc(Cc2c(C)nc3nc(SCC(=O)NCc4ccc(F)cc4)nn3c2C)c1` here?
Answer: Its activity change, negative = inhibition is inactive: -0.374% [at 9.27 µM].

Question: Which “activity change, negative = inhibition” value does the source give for `CC(=O)N1c2ccc(S(=O)(=O)N3CCC(C(=O)N4CCN(c5ccccc5)CC4)CC3)cc2CC1C` (configuration not stated) here?
Answer: Its value is inactive: -2.49%.

Question: Which Potency does the source give for `CC(C)(C)C(=O)Nc1ccc(Sc2ccc([N+](=O)[O-])cc2)cc1` here?
Answer: The Potency was active: 16.4 µM.

Question: Which Potency does the source give for `COc1ccccc1N1CCN(C(=O)c2ccc(-c3ccc(Cl)cc3)o2)CC1` here?
Answer: Its Potency is inconclusive: 13 µM [falling, partial curve].

Question: Which Potency does the source give for `O=C(OCCn1c(=S)sc2ccccc21)c1ccccc1` here?
Answer: Its Potency is inconclusive: 16.4 µM [activator, partial curve].

Question: Which Potency does the source give for `COC(=O)c1ccccc1NC(=O)COc1ccc(S(=O)(=O)NC(C)C)cc1` here?
Answer: The Potency was inconclusive: 6.51 µM [falling, single point].

Question: For `COc1ccc(S(=O)(=O)NCCCCOc2ccc(Cl)cc2)cc1`, which Potency is on record?
Answer: Its Potency is inconclusive: 29.1 µM [falling, single point].

Question: Which Potency does the source give for `O=C(NCc1cccc(Cl)c1)c1cccc(OC2CCN(C(=O)C3CC3)CC2)c1` here?
Answer: The Potency was inconclusive: 20.6 µM [falling, single point].

Question: With `Cc1cc(C)n(CC(=O)N/N=C/c2cc(Br)cc([N+](=O)[O-])c2O)n1` as the compound, how does the Potency read?
Answer: The Potency was inconclusive: 16.4 µM [falling, partial curve, poor fit].

Question: For `CCOC(=O)/C(=C\c1ccc(Cl)cc1)c1nc2sc(C)c(C)c2c(=O)[nH]1`, which Potency is on record?
Answer: The Potency was active: 18.4 µM.

Question: With `COc1ccc2nc(NC(=O)CSc3nnnn3C3CCCCC3)sc2c1` as the compound, how does the Potency read?
Answer: Its Potency is inconclusive: 0.13 µM [activator, full curve, poor fit].

Question: For `COc1cccc(CNS(=O)(=O)c2ccc3c(c2)NC(=O)CS3)c1`, which “activity change, negative = inhibition” value is on record?
Answer: Its value is inactive: 7.01%.

Question: Which Potency does the source give for `C=CCc1ccc(OCCCCOc2ccc(C(=O)O)cc2)c(OC)c1` here?
Answer: Its Potency is inconclusive: 9.2 µM [falling, partial curve, poor fit].

Question: With `Cc1ccc(Cn2c(SCC(=O)NCC3CCCO3)nc3c2c(=O)n(C)c(=O)n3C)cc1` (configuration not stated) as the compound, how does the Potency read?
Answer: Its Potency is inconclusive: 8.2 µM [falling, partial curve].

Question: With `Cc1ccc(-c2nnn(CCC(=O)NC(C)(C)C)n2)cc1` as the compound, how does the “activity change, negative = inhibition” value read?
Answer: Its value is inactive: 16%.

Question: For `Cc1noc(C)c1NC(=O)N(C)C[C@H]1Oc2ccc(NC(=O)Nc3ccc4c(c3)OCO4)cc2C(=O)N([C@H](C)CO)C[C@@H]1C`, which Potency is on record?
Answer: Its Potency is inconclusive: 10.3 µM [activator, partial curve, poor fit].

Question: For `Cc1cccc(C(=O)N2CCC(c3nc4ccccc4s3)CC2)c1`, which Potency is on record?
Answer: The Potency was inconclusive: 0.92 µM [falling, full curve, poor fit].

Question: Which Potency does the source give for `Cc1nc(SCC(=O)NCc2ccco2)c2c(C)c(C)sc2n1` here?
Answer: The Potency was inconclusive: 1.46 µM [activator, partial curve, poor fit].

Question: With `CNC(=O)c1c(NC(=O)Cc2coc3ccc(C)cc23)sc2c1CCCC2` as the compound, how does the Potency read?
Answer: Its Potency is inconclusive: 9.2 µM [falling, partial curve].

Question: With `COc1cc([N+](=O)[O-])ccc1NC(=O)c1cccc(NC(=O)C(C)C)c1` as the compound, how does the Potency read?
Answer: The Potency was inconclusive: 14.6 µM [falling, partial curve].

Question: For `CCOC(=O)/C(=C/C=C1\Sc2cc(OCC)c(OCC)cc2N1CC)C(C)=O`, which Potency is on record?
Answer: Its Potency is inconclusive: 14.6 µM [falling, partial curve, poor fit].
